# Assay results: US6900050 (ROCKEFELLER UNIVERSITY, dated 2005)
# Protein sequences, listed by entry. Tags and fused reporters are not part of them. Lines headed by an entry give the natural chain unless they say otherwise; changes in a name come on top.
# UniProt P0A7C2: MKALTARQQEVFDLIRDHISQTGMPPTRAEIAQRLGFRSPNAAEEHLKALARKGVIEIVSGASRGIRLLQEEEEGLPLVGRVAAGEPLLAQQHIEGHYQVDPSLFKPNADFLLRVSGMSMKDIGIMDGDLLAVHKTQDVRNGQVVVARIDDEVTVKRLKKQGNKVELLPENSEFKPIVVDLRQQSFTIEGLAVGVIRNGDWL
# No constants are given. Whether binding was seen depends on the method and setting. For part of these data: In cells and extracts the contact can be indirect. Some binding calls cover weakened binding; strength is not graded here. Tags and fused reporters may be left off the sequences shown.
# T1: GST-TRIP fusion protein (GST-wild type TRIP, pEBG vector, expressed in 293 cells) (mouse) (UniProt Q8VIG6)
# T1 sequence: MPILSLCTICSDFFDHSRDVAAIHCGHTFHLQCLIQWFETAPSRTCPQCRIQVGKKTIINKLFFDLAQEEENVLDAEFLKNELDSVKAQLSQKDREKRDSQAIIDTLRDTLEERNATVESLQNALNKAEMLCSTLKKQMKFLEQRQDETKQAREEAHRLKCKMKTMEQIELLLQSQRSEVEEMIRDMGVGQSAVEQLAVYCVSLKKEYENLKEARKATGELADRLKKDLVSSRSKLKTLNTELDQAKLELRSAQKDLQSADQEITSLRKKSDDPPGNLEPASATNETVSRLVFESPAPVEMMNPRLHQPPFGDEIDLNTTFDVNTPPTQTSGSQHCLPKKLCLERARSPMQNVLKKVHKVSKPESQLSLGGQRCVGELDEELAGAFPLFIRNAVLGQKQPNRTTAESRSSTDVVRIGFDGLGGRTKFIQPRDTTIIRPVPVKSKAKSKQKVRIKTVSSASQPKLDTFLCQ
# Legend:
# [1] = molecular target: LexA DNA binding domain-TRAF2 fusion protein (UniProt P0A7C2); assay: yeast two-hybrid, b-gal activity
# [2] = molecular target: LexA DNA binding domain-TRAF1 fusion protein (bait plasmid pEG202-TRAF1) (UniProt P0A7C2); assay: yeast two-hybrid, b-gal activity
# [3] = molecular target: T1, GST-TRIP fusion protein (GST-wild type TRIP, pEBG vector, expressed in 293 cells) (mouse); assay: coprecipitation from transfected 293 cells
Binder,binding [1],binding [2],binding [3]
"TRIP residues 56-185 fused to the transcription activation domain (protein, not shown: large carriers) KTIINKLFFDLAQEEENVLDAEFLKNELDSVKAQLSQKDREKRDSQAIIDTLRDTLEERNATVESLQNALNKAEMLCSTLKKQMKFLEQRQDETKQAREEAHRLKCKMKTMEQIELLLQSQRSEVEEMIR",binds,binds,–
"TRAF1 expressed in 293 cells (protein, UniProt P39428 1-409, looked up) MASSSAPDENEFQFGCPPAPCQDPSEPRVLCCTACLSENLRDDEDRICPKCRADNLHPVSPGSPLTQEKVHSDVAEAEIMCPFAGVGCSFKGSPQSMQEHEATSQSSHLYLLLAVLKEWKSSPGSNLGSAPMALERNLSELQLQAAVEATGDLEVDCYRAPCCESQEELALQHLVKEKLLAQLEEKLRVFANIVAVLNKEVEASHLALAASIHQSQLDREHILSLEQRVVELQQTLAQKDQVLGKLEHSLRLMEEASFDGTFLWKITNVTKRCHESVCGRTVSLFSPAFYTAKYGYKLCLRLYLNGDGSGKKTHLSLFIVIMRGEYDALLPWPFRNKVTFMLLDQNNREHAIDAFRPDLSSASFQRPQSETNVASGCPLFFPLSKLQSPKHAYVKDDTMFLKCIVDTSA",–,–,binds
"TRIP residues 186-275 fused to the transcription activation domain (protein, not shown: large carriers) DMGVGQSAVEQLAVYCVSLKKEYENLKEARKATGELADRLKKDLVSSRSKLKTLNTELDQAKLELRSAQKDLQSADQEITSLRKKSDDPP",binds,binds,–

# Further lines, results first:
binding [1],binding [2],binding [3],Binder
binds,binds,–,"mutant TRIP lacking the N-terminal RING finger motif (residues 56-275, putative coiled-coil region) fused to the transcription activation domain (protein, not shown: large carriers) KTIINKLFFDLAQEEENVLDAEFLKNELDSVKAQLSQKDREKRDSQAIIDTLRDTLEERNATVESLQNALNKAEMLCSTLKKQMKFLEQRQDETKQAREEAHRLKCKMKTMEQIELLLQSQRSEVEEMIRDMGVGQSAVEQLAVYCVSLKKEYENLKEARKATGELADRLKKDLVSSRSKLKTLNTELDQAKLELRSAQKDLQSADQEITSLRKKSDDPP"
binds,binds,–,"mutant TRIP comprising the N-terminal half of the protein (residues 1-275) fused to the transcription activation domain (protein, not shown: large carriers) MPILSLCTICSDFFDHSRDVAAIHCGHTFHLQCLIQWFETAPSRTCPQCRIQVGKKTIINKLFFDLAQEEENVLDAEFLKNELDSVKAQLSQKDREKRDSQAIIDTLRDTLEERNATVESLQNALNKAEMLCSTLKKQMKFLEQRQDETKQAREEAHRLKCKMKTMEQIELLLQSQRSEVEEMIRDMGVGQSAVEQLAVYCVSLKKEYENLKEARKATGELADRLKKDLVSSRSKLKTLNTELDQAKLELRSAQKDLQSADQEITSLRKKSDDPP"
